In PubChem BioAssay AID192 (DTP/NCI, 2004):
The list is a part of this screen's results and no random one: it is rich in T/C values a quarter to a half above the control, in often repeated tests (any T/C) and in doses without a T/C. Other doses and runs of a compound stand elsewhere. T/C: endpoint of the treated group in % of that of the vehicle group. Some entries give survivors of the animals treated and no T/C: the source files T/C as zero there, which appears to mark a toxic dose or a test without result, not a measured value. Some survivor counts are full or nearly so, which does not show that the dose was tolerated: survival well below the control is almost never listed, so the zero probably covers shortened survival too. Survivors were counted at the toxicity check, usually on the fifth day, unless a day is given; later deaths do not show. Schedule codes are those of the source, read here as Q, the interval in days (D) or hours (H), X, the number of doses. Some doses were run more than once; the values are given in rising order. Some molecules as drawn cover several salts, stereoisomers or complexes of the source; a dose is that of the sample tested. Where survival is the endpoint, this PubChem deposit counts one and a half times the control or more as active, and values a quarter to a half above the control carry no call in these data; other NCI protocols may use other cut-offs.

System: BDF1 mice, B16 melanoma ip, median survival T/C
Experiment: NCI In Vivo Anticancer Drug Screen. Data for tumor model B16 Melanoma (intraperitoneal) in B6D2F1 (BDF1) mice
Conditions: T/C endpoint: median survival time, higher T/C = longer survival
Summary of the method: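 Each result divides a survival or tumor-size measurement in the compound-treated group by the same measurement in the vehicle group.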

[1] = dose: 100.0 mg/kg/injection, schedule: Q01DX009 (ip), vehicle: Klucel (hydroxypropylcellulose) (HPC)
[2] = dose: 200.0 mg/kg/injection, schedule: Q01DX009 (ip), vehicle: Klucel (hydroxypropylcellulose) (HPC)
[3] = dose: 400.0 mg/kg/injection, schedule: Q01DX009 (ip), vehicle: Klucel (hydroxypropylcellulose) (HPC)
[4] = dose: 25.0 mg/kg/injection, schedule: Q01DX009 (ip), vehicle: Klucel (hydroxypropylcellulose) (HPC)
[5] = dose: 50.0 mg/kg/injection, schedule: Q01DX009 (ip), vehicle: Klucel (hydroxypropylcellulose) (HPC)
[6] = dose: 100.0 mg/kg/injection, schedule: Q01DX009 (ip), vehicle: saline
[7] = dose: 200.0 mg/kg/injection, schedule: Q01DX009 (ip), vehicle: saline
[8] = dose: 400.0 mg/kg/injection, schedule: Q01DX009 (ip), vehicle: saline
[9] = dose: 50.0 mg/kg/injection, schedule: Q01DX009 (ip), vehicle: saline
[10] = dose: 200.0 mg/kg/injection, schedule: Q01DX009 (ip), vehicle: saline with Tween-80

`CCC(c1ccc(OC(=O)Cc2ccc(N(CCCl)CCCl)cc2)cc1)C(CC)c1ccc(OC(=O)Cc2ccc(N(CCCl)CCCl)cc2)cc1` (configuration not stated) was tested, and the survivor count (dose: 80.0 mg/kg/injection, schedule: Q01DX009 (ip), vehicle: saline with Tween-80) was 10 of 10, the survivor count [1] was 10 of 10 and the survivor count (dose: 120.0 mg/kg/injection, schedule: Q01DX009 (ip), vehicle: saline with Tween-80) was 10 of 10. The survivor count (dose: 128.0 mg/kg/injection, schedule: Q02DX009 (ip), vehicle: saline with Tween-80) was 10 of 10, the survivor count (dose: 180.0 mg/kg/injection, schedule: Q01DX009 (ip), vehicle: saline with Tween-80) was 10 of 10 and the survivor count [2] was 10 of 10. For the same molecule, the survivor count (dose: 256.0 mg/kg/injection, schedule: Q02DX009 (ip), vehicle: saline with Tween-80) was 10 of 10, the survivor count (dose: 270.0 mg/kg/injection, schedule: Q01DX009 (ip), vehicle: saline with Tween-80) was 10 of 10 and the survivor count [3] was 10 of 10. For the same molecule, the survivor count (dose: 405.0 mg/kg/injection, schedule: Q01DX009 (ip), vehicle: saline with Tween-80) was 10 of 10 and the survivor count (dose: 512.0 mg/kg/injection, schedule: Q02DX009 (ip), vehicle: saline with Tween-80) was 10 of 10.

`CCCCCCCCCC(=O)OCCN1CCN(CCCN2c3ccccc3Sc3ccc(C(F)(F)F)cc32)CC1` was tested, and the T/C (dose: 0.78 mg/kg/injection, schedule: Q01DX009 (ip), vehicle: alcohol) was 129 % of control and the survivor count (dose: 1.56 mg/kg/injection, schedule: Q01DX009 (ip), vehicle: alcohol) was 10 of 10.

In the case of `CCCCCCCC(=O)CCC`, the survivor count [3] is reported as 7 of 10.

With `CCCCCCCC(=O)N/N=C(\CO)[C@]1(O)Cc2c(O)c3c(c(O)c2[C@@H](OC2CC(N)C(O)C(C)O2)C1)C(=O)c1c(OC)cccc1C3=O` (some centres not stated) the survivor count (dose: 100.0 mg/kg/injection, schedule: Q01DX001 (ip), vehicle: water) was 9 of 10 and 10 of 10 and the survivor count (dose: 200.0 mg/kg/injection, schedule: Q01DX001 (ip), vehicle: water) was 9 of 10.

For `CCC[N+](CCC)=c1ccc2nc3c(C)cc(N(CC)CC)cc3sc-2c1`, the survivor count (dose: 1.25 mg/kg/injection, schedule: Q01DX009 (ip), vehicle: saline with Tween-80) was 5 of 6, the survivor count (dose: 2.5 mg/kg/injection, schedule: Q01DX009 (ip), vehicle: saline with Tween-80) was 6 of 6 and the survivor count (dose: 5.0 mg/kg/injection, schedule: Q01DX009 (ip), vehicle: saline with Tween-80) was 6 of 6.

With `CS(=O)(=O)OCCCOS(C)(=O)=O` the survivor count [4] was 10 of 10, the survivor count [5] was 10 of 10 and the survivor count [1] was 10 of 10. For the same molecule, the survivor count [2] was 8 of 10.

For `CC(C)=CCN1CCC2(C)c3cc(O)ccc3CC1C2C` (configuration not stated), the T/C (dose: 3.12 mg/kg/injection, schedule: Q01DX009 (ip), vehicle: Klucel (hydroxypropylcellulose) (HPC)) was 127 % of control, the survivor count (dose: 12.5 mg/kg/injection, schedule: Q01DX009 (ip), vehicle: Klucel (hydroxypropylcellulose) (HPC)) was 9 of 10 and the survivor count [4] was 10 of 10. For the same molecule, the survivor count [5] was 10 of 10, the survivor count [1] was 10 of 10 and the survivor count [2] was 5 of 10.

With `CC(C)C[C@H](O)C(=O)O` the survivor count [6] was 6 of 6, the survivor count [7] was 6 of 6 and the survivor count [8] was 1 of 6.

`CCC(C(=O)O)C(=O)O.[NH2-].[NH2-].[Pt+2]` was tested, and the T/C (dose: 25.0 mg/kg/injection, schedule: Q04DX003 (ip), vehicle: saline) was 138 % of control, the survivor count (dose: 32.0 mg/kg/injection, schedule: Q01DX009 (ip), vehicle: water) was 10 of 10 and the survivor count (dose: 64.0 mg/kg/injection, schedule: Q01DX009 (ip), vehicle: water) was 10 of 10. For the same molecule, the survivor count (dose: 200.0 mg/kg/injection, schedule: Q04DX003 (ip), vehicle: saline) was 10 of 10.

With `COC(C/C=C\C=C\CC/C=C/CC(C)/C=C/C(=C\C(=O)O)CC(=O)O)/C(C)=C\C=C(/C)C(=O)O` (configuration not stated) the survivor count (dose: 1.0 mg/kg/injection, schedule: Q01DX009 (ip), vehicle: saline) was 7 of 10, the survivor count (dose: 2.0 mg/kg/injection, schedule: Q01DX009 (ip), vehicle: saline) was 0 of 10 and the survivor count (dose: 4.0 mg/kg/injection, schedule: Q01DX009 (ip), vehicle: saline) was 0 of 10. The survivor count (dose: 8.0 mg/kg/injection, schedule: Q01DX009 (ip), vehicle: saline) was 0 of 10.

In the case of `CCCCCCCCCOCCOCCOCCN`, the survivor count (dose: 50.0 mg/kg/injection, schedule: Q04DX003 (ip), vehicle: Klucel (hydroxypropylcellulose) (HPC)) is reported as 10 of 10.

For `CN(C)c1nc(N)nc(Nc2ccc(Br)cc2)c1N=O`, the T/C [1] was 135 % of control and the survivor count [3] was 5 of 10.

With `N=C(N)c1ccc(/C=C/c2ccc(C(=N)N)cc2)cc1` the survivor count (dose: 64.0 mg/kg/injection, schedule: Q01DX009 (ip), vehicle: saline with Tween-80) was 8 of 10, the survivor count (dose: 128.0 mg/kg/injection, schedule: Q01DX009 (ip), vehicle: saline with Tween-80) was 1 of 10 and the survivor count (dose: 256.0 mg/kg/injection, schedule: Q01DX009 (ip), vehicle: saline with Tween-80) was 0 of 10.

For `C[N+](C)(C)CCCC1C2CCC(C2)C1C[N+](C)(C)C` (configuration not stated), the survivor count [9] was 0 of 10.

For `[CH3][Pb]([CH3])([CH3])[Cl]`, the survivor count (dose: 3.0 mg/kg/injection, schedule: Q01DX009 (ip), vehicle: saline) was 10 of 10 and the survivor count (dose: 6.0 mg/kg/injection, schedule: Q01DX009 (ip), vehicle: saline) was 0 of 10.

`CNC(=O)Nc1ccc(Cl)cc1C` was tested, and the survivor count [2] was 10 of 10 and the survivor count [3] was 5 of 10.

`CN(CCCOS(C)(=O)=O)CCCOS(C)(=O)=O` was tested, and the T/C (dose: 5.0 mg/kg/injection, schedule: Q01DX009 (ip), vehicle: saline) was 128 % of control, the T/C (dose: 12.5 mg/kg/injection, schedule: Q01DX009 (ip), vehicle: saline) was 126 % of control and the survivor count [9] was 10 of 10. For the same molecule, the survivor count (dose: 80.0 mg/kg/injection, schedule: Q01DX009 (ip), vehicle: saline) was 6 of 6 and the survivor count [6] was 10 of 10.

For `Cc1ccc(C(=N)c2ccccc2Cc2cccc3ccccc23)c(C)c1`, the survivor count (dose: 6.25 mg/kg/injection, schedule: Q01DX009 (ip), vehicle: saline with Tween-80) was 10 of 10, the survivor count (dose: 12.5 mg/kg/injection, schedule: Q01DX009 (ip), vehicle: saline with Tween-80) was 10 of 10 and the survivor count (dose: 25.0 mg/kg/injection, schedule: Q01DX009 (ip), vehicle: saline with Tween-80) was 10 of 10. For the same molecule, the survivor count (dose: 50.0 mg/kg/injection, schedule: Q01DX009 (ip), vehicle: saline with Tween-80) was 10 of 10, the survivor count (dose: 100.0 mg/kg/injection, schedule: Q01DX009 (ip), vehicle: saline with Tween-80) was 10 of 10 and the survivor count [10] was 10 of 10. For the same molecule, the survivor count (dose: 400.0 mg/kg/injection, schedule: Q01DX009 (ip), vehicle: saline with Tween-80) was 9 of 10.

For `COC(=O)C1=CCCN(C)C1`, the survivor count [6] was 3 of 10, the survivor count [7] was 0 of 10 and the survivor count [8] was 0 of 10.

`CNC=O` was tested, and the survivor count [8] was 10 of 10, the survivor count (dose: 800.0 mg/kg/injection, schedule: Q01DX009 (ip), vehicle: saline) was 9 of 10 and the survivor count (dose: 1600.0 mg/kg/injection, schedule: Q01DX009 (ip), vehicle: saline) was 8 of 10. The survivor count (dose: 3200.0 mg/kg/injection, schedule: Q01DX009 (ip), vehicle: saline) was 2 of 10.

For `CNNC(=O)NC`, the survivor count (dose: 6.25 mg/kg/injection, schedule: Q01DX009 (ip), vehicle: saline) was 10 of 10, the survivor count (dose: 25.0 mg/kg/injection, schedule: Q01DX009 (ip), vehicle: saline) was 10 of 10 and the survivor count [9] was 8 of 10. The survivor count [6] was 1 of 10, the survivor count [7] was 0 of 10 and the survivor count [8] was 0 of 10.

`C/C(=N\NC(N)=O)c1cccc(/C(C)=N/NC(N)=O)n1` was tested, and the survivor count [10] was 9 of 10.
